Test results from the supplement of paper PMC10849652.
The other results are listed elsewhere or left out.

Chains of the proteins cited; added tags and fusions are not shown. Lines headed by an entry give the natural chain unless they say otherwise; changes in a name come on top.
UniProt O43182: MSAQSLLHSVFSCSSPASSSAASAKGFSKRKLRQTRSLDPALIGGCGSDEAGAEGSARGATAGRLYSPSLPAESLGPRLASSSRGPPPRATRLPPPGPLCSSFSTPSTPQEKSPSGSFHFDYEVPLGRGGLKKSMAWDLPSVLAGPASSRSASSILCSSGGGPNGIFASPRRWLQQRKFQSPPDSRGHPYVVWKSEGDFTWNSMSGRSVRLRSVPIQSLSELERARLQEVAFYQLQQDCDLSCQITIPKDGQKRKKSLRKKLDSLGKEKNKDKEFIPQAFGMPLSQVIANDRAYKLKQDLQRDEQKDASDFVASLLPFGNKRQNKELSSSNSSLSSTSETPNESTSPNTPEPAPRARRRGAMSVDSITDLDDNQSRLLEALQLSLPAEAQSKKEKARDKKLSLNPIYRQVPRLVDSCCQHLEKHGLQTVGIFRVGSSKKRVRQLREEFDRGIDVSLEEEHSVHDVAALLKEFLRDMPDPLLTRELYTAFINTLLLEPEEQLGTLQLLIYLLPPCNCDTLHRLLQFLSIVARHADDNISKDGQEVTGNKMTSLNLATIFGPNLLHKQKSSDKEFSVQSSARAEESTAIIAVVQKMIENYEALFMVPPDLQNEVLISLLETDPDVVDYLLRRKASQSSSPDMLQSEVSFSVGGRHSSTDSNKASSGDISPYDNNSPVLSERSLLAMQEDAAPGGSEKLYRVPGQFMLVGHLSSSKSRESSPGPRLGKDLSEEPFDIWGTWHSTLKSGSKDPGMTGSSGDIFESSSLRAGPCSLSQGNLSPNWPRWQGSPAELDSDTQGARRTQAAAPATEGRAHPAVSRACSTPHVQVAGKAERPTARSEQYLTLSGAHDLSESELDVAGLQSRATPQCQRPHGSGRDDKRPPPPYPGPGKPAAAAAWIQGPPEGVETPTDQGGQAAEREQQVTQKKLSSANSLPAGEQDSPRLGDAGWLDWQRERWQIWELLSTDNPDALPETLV
UniProt P62330: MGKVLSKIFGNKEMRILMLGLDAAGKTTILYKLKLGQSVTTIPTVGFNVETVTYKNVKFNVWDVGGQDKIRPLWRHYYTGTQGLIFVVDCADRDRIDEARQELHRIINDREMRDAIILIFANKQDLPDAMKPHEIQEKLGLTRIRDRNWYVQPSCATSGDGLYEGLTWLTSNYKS
UniProt P02654: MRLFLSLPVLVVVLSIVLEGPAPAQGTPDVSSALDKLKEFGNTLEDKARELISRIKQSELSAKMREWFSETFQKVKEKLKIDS
UniProt P98171: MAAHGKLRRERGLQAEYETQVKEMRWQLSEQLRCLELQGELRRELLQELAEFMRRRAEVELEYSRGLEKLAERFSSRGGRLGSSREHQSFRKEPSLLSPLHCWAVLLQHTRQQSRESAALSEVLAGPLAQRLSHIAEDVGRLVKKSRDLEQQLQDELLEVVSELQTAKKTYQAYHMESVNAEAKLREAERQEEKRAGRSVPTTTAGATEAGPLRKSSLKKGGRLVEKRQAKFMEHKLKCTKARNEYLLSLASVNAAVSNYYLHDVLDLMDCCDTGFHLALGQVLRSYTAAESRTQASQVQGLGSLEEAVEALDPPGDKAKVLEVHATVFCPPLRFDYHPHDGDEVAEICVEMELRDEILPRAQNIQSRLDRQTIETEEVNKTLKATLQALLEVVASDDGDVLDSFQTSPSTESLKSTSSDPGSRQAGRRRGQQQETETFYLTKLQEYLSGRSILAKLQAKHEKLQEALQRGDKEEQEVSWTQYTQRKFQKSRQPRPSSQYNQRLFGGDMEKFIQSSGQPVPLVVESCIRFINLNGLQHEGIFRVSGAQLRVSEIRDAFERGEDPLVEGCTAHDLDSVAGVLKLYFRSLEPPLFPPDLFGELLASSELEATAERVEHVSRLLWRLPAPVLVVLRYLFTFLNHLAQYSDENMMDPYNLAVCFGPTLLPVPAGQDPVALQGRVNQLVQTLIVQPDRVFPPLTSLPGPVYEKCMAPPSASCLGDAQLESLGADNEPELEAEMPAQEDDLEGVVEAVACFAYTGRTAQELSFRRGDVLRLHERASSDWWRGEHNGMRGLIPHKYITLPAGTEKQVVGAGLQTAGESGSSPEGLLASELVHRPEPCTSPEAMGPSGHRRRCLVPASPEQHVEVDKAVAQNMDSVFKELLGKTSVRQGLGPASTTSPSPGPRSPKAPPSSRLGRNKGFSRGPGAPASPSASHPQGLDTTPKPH
UniProt Q8N5I2: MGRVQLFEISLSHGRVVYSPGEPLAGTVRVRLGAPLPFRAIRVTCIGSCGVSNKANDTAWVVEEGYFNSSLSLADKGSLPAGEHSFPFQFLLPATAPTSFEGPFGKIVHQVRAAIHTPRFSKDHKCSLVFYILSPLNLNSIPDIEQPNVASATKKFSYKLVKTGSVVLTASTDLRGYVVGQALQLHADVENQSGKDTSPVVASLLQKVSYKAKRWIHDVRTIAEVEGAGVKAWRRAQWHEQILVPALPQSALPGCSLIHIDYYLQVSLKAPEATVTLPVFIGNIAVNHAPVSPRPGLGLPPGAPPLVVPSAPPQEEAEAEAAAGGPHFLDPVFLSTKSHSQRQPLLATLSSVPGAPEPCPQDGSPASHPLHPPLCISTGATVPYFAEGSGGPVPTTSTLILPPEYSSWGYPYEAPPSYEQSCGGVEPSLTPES
UniProt P15848: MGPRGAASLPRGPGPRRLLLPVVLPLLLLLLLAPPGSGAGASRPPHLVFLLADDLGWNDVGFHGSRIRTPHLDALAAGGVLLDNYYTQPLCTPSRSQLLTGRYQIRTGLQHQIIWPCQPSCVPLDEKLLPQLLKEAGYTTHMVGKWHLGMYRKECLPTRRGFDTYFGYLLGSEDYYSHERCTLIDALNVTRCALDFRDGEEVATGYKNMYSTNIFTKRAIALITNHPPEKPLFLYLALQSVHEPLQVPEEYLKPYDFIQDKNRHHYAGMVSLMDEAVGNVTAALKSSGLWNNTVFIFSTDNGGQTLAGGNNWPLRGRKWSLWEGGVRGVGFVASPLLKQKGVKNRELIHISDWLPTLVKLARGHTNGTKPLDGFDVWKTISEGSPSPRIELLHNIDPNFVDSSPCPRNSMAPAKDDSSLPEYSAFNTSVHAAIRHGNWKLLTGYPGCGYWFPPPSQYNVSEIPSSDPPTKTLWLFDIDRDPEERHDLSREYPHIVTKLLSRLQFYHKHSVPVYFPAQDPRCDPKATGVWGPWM
UniProt P36405: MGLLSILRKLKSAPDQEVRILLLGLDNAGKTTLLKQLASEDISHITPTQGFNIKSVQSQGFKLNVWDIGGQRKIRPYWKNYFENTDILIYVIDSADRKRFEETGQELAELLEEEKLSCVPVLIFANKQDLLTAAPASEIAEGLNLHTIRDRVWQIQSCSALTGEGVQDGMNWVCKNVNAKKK
UniProt P27695, whole entry, looked up: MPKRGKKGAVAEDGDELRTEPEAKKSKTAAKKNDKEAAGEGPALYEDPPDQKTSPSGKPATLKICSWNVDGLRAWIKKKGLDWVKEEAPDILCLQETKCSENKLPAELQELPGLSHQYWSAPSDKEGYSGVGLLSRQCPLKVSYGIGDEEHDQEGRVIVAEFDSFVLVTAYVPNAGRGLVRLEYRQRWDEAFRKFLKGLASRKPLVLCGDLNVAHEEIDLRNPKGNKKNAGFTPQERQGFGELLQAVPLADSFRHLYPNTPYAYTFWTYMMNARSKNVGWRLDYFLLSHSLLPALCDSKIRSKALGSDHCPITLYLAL
UniProt P15289: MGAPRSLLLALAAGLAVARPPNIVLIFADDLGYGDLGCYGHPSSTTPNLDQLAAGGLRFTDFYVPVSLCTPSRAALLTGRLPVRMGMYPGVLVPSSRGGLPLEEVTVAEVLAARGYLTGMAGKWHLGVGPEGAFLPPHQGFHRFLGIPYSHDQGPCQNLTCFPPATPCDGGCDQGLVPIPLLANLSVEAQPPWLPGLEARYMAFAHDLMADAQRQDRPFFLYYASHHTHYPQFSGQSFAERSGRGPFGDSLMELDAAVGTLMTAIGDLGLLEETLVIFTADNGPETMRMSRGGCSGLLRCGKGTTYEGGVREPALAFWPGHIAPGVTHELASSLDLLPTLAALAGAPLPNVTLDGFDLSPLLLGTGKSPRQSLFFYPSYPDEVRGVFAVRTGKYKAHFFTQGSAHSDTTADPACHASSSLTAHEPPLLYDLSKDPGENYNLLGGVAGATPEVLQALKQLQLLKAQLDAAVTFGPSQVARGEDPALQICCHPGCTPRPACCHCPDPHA
UniProt P32121, whole entry, looked up: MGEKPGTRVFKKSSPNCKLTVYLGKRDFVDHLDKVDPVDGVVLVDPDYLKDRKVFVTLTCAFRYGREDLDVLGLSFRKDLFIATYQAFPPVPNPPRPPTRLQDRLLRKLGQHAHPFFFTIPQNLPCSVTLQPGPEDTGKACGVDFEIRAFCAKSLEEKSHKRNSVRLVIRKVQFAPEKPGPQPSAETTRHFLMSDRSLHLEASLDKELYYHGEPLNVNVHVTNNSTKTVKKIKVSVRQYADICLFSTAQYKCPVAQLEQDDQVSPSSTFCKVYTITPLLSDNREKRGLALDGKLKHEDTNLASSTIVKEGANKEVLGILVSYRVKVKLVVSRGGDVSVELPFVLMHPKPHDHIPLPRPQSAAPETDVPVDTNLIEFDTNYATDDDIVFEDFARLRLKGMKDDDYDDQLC
UniProt Q9UH62: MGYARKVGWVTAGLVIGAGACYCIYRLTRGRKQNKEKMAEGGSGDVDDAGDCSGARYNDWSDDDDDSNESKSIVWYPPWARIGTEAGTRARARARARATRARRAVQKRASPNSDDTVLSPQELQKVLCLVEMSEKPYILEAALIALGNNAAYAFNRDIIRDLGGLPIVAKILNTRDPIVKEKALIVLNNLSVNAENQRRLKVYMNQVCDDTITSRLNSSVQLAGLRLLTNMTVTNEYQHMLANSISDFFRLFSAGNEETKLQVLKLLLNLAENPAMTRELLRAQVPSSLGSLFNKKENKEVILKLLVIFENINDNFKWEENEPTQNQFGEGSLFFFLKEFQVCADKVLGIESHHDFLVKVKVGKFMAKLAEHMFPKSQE
UniProt Q66PJ3: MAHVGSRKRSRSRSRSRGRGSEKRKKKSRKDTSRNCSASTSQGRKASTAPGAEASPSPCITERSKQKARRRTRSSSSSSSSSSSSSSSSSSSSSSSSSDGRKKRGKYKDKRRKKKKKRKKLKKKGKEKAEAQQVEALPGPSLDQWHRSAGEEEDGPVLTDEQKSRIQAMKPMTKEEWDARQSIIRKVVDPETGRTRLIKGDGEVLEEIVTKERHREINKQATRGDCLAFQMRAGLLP
UniProt Q8N8R7: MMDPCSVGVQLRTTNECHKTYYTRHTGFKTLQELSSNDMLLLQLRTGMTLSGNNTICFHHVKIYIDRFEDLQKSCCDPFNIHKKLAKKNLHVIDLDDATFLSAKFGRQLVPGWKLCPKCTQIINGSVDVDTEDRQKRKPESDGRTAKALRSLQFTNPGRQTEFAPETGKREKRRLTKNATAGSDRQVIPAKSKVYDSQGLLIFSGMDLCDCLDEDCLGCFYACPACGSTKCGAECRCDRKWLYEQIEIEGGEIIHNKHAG
UniProt Q9H0R1: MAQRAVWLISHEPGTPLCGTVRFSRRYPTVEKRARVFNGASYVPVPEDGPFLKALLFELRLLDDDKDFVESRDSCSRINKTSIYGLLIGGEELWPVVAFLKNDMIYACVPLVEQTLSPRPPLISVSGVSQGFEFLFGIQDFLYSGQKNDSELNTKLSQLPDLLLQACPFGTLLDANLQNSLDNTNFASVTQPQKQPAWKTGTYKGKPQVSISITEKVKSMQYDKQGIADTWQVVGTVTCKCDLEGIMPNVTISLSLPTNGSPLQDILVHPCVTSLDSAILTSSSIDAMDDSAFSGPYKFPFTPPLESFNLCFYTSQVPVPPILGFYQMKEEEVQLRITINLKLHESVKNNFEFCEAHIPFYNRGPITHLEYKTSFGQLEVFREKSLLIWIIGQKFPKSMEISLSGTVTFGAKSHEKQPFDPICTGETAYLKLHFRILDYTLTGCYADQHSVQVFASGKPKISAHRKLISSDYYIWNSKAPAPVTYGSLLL
UniProt Q8N392: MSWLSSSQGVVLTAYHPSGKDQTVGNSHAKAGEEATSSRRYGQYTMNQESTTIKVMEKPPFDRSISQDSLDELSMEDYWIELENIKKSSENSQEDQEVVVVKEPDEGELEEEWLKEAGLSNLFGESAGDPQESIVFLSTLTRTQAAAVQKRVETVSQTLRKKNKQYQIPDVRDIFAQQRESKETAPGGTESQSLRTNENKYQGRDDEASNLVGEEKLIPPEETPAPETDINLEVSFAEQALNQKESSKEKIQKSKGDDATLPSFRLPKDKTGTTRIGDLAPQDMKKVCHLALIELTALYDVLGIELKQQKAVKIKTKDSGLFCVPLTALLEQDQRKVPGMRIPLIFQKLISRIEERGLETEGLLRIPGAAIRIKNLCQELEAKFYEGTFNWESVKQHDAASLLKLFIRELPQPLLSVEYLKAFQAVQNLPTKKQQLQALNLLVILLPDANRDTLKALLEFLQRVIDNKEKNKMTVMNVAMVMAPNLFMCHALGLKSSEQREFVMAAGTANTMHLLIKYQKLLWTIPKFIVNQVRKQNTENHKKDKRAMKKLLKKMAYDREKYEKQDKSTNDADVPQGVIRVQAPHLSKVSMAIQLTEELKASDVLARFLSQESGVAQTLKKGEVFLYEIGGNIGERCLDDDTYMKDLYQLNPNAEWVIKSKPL

Legend:
Experiment in all cases: log2 fold change, soluble protein after heating vs DMSO (PISA); higher = thermal stabilisation; K562 lysate, 10 uM; active = over 0.2 and 3.5 SD of the protein, either way, in both replicates (recomputed)
[1] = compound: C1=CC=C(C=C1)[C@H](COC2=CC3=C(C=C2)NC(=O)N3)NC(=O)C4=CC=CN(C4=O)CC5=CC(=C(C=C5)F)F
Outline: (§1)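 K562 pellets were dounce-homogenised in PBS pH 7.4 containing 1 mM MgCl2, and the crude extract, at 1 mg/mL protein, was exposed to 10 μM compound for 30 min. Aliquots were heated for 3 min across 48°C-58°C, pooled, brought to 0.5% NP-40 at 4°C and spun at 21,000xg for 90 min, with the supernatant taken as soluble protein. TMTpro 16plex LC-MS/MS with equalised channel sums quantified that protein. Values are log-two fold changes in thermal stability relative to solvent controls, taken from duplicates.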

[2] = compound: CC1=C(SC2=C1C(=N[C@H](C3=NN=C(N32)C)CC(=O)N)C4=CC=C(C=C4)Cl)C
Outline: as §1

[3] = compound: CC1=C2C(=CC=C1)N=C(N(C2=O)C3=CC=CC=C3C)CN4C=NC5=C(N=CN=C54)N
Outline: as §1

[4] = compound: Cc1sc2c(c1C)C(c1ccc(Cl)cc1)=N[C@@H](CC(=O)OC(C)(C)C)c1nnc(C)n1-2
Outline: as §1

[5] = compound: c1ccc([C@@H]2C[C@H]2NC2CCNCC2)cc1
Outline: as §1

Measured: log2 fold change

ARHGDIB (UniProt P52566)
inactive: [1] 0.016 | [2] 0.023 | [3] 0.004 | [4] -0.092 | [5] 0.045

ARHGAP6 (UniProt O43182)
inactive: [1] -0.026 | [2] -0.023 | [3] -0.012 | [4] 0.018 | [5] 0.02

ARF6 (UniProt P62330)
inactive: [1] 0.022 | [2] -0.009 | [3] 0.025 | [4] -0.06 | [5] -0.022

APOC1 (UniProt P02654)
inactive: [1] 0.04 | [2] 0.06 | [3] -0.082 | [4] -0.015 | [5] 0.128

ARHGAP4 isoform 2 (UniProt P98171)
inactive: [1] 0.022 | [2] 0.013 | [3] 0.116 | [4] -0.023 | [5] 0.002

ARPC4 isoform 3 (UniProt P59998)
inactive: [1] -0.022 | [2] -0.018 | [3] 0 | [4] 0.003 | [5] -0.021

ARRDC1 (UniProt Q8N5I2)
inactive: [1] -0.003 | [2] -0.001 | [3] -0.056 | [4] 0.09 | [5] -0.125

ARSB (UniProt P15848)
inactive: [1] 0.163 | [2] 0.102 | [3] 0.006 | [4] 0.003 | [5] 0.023

APPL2 isoform 3 (UniProt Q8NEU8)
inactive: [1] 0.011 | [2] 0.022 | [3] -0.008 | [4] -0.078 | [5] 0.066

ARL3 (UniProt P36405)
inactive: [1] -0.003 | [2] 0.004 | [3] -0.01 | [4] 0.004 | [5] 0.006

APEX1 (UniProt P27695)
inactive: [1] 0.055 | [2] 0.007 | [3] -0.007 | [4] 0.086 | [5] 0.131

ARFGEF1 (UniProt Q9Y6D6)
inactive: [1] -0.004 | [2] 0.027 | [3] 0.009 | [4] 0.006 | [5] 0.018

ARID2 (UniProt Q68CP9)
inactive: [1] 0.077 | [2] -0.09 | [3] -0.007 | [4] 0 | [5] 0.485

ARAP1 (UniProt Q96P48)
inactive: [1] 0.022 | [2] -0.008 | [3] 0.048 | [4] 0.013 | [5] -0.015

ARSA (UniProt P15289)
inactive: [1] 0.161 | [2] 0.112 | [3] -0.075 | [4] -0.026 | [5] -0.031

ARRB2 isoform 3 (UniProt P32121)
inactive: [1] -0.043 | [2] 0.008 | [3] -0.036 | [4] -0.011 | [5] -0.037

ARMCX3 (UniProt Q9UH62)
inactive: [1] 0.015 | [2] 0.009 | [3] 0.029 | [4] -0.074 | [5] 0.053

ARL6IP4 (UniProt Q66PJ3)
inactive: [1] 0.051 | [2] 0.046 | [3] -0.059 | [4] -0.059 | [5] 0.084

APOBR (UniProt Q0VD83)
inactive: [1] -0.041 | [2] 0.016 | [3] -0.039 | [4] -0.047 | [5] -0.015

ARL14EP (UniProt Q8N8R7)
inactive: [1] 0 | [2] 0.067 | [3] -0.03 | [4] -0.006 | [5] 0.109

ARHGEF1 (UniProt M0QZR4)
inactive: [1] -0.046 | [2] 0.006 | [3] -0.017 | [4] -0.017 | [5] 0.004

ARHGEF6 (UniProt Q15052)
inactive: [1] 0.005 | [2] -0.066 | [3] -0.011 | [4] 0.02 | [5] 0.051

AP5M1 (UniProt Q9H0R1)
inactive: [1] 0.018 | [2] -0.142 | [3] -0.061 | [4] 0.008 | [5] 0.028

ARHGAP18 (UniProt Q8N392)
inactive: [1] -0.007 | [2] -0.015 | [3] 0.007 | [4] -0.005 | [5] 0

Taken from the results shown (2 entries):
ARHGEF6 (UniProt Q15052)
inactive: [1] 0.005 | [2] -0.066 | [3] -0.011 | [4] 0.02 | [5] 0.051

AP5M1 (UniProt Q9H0R1)
inactive: [1] 0.018 | [2] -0.142 | [3] -0.061 | [4] 0.008 | [5] 0.028
